{"source": "PubChem BioAssay AID1671195 (Yale University, 2021)", "screen": "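Regulators of LDL receptor activity judged by labelled LDL uptake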 (primary screen)", "cell system": "human Huh7 hepatoma cells", "knock-down reagent": "siRNA pool against human genes, 18 nM", "duration": "about 2 to 2.5 days of knockdown, then 8 h LDL uptake", "conditions": "DiI-labelled LDL at 30 µg/ml for 8 h, in lipoprotein-deficient serum medium", "measurement": "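Fluorescent LDL signal imaged in cells, scaled to the plate median, robust z-score for each replicate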", "direction": "robust z-score: higher = more LDL uptake after knockdown", "active means": "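a gene counts as active if at least two replicate z-scores exceed ±2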", "note": "This is one part, drawn at random, of about 22,000 reagents tested. About 1,510 of all reagents (6.9%) were called active. 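Active includes knockdowns raising or lowering LDL uptake; positive z-scores mean more uptake, negative mean less.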"}
{"Target gene":"DNAH1","robust z-score, replicate 1":0.231,"robust z-score, replicate 2":-0.757,"robust z-score, replicate 3":-0.867,"Outcome":"inactive"}
{"Target gene":"RMP24","robust z-score, replicate 1":4.09,"robust z-score, replicate 2":4.1,"robust z-score, replicate 3":3.68,"Outcome":"active"}
{"Target gene":"SLITRK4","robust z-score, replicate 1":-0.807,"robust z-score, replicate 2":-1.24,"robust z-score, replicate 3":-2.08,"Outcome":"inactive"}
{"Target gene":"PIGF","robust z-score, replicate 1":-0.396,"robust z-score, replicate 2":-0.167,"robust z-score, replicate 3":-0.14,"Outcome":"inactive"}
{"Target gene":"ISG20","robust z-score, replicate 1":-0.723,"robust z-score, replicate 2":-0.773,"robust z-score, replicate 3":-0.355,"Outcome":"inactive"}
{"Target gene":"DNAAF1","robust z-score, replicate 1":2.15,"robust z-score, replicate 2":1.33,"robust z-score, replicate 3":0.309,"Outcome":"inactive"}
{"Target gene":"APMAP","robust z-score, replicate 1":2.67,"robust z-score, replicate 2":1.97,"robust z-score, replicate 3":0.695,"Outcome":"active"}
{"Target gene":"ACSL4","robust z-score, replicate 1":-0.705,"robust z-score, replicate 2":-0.488,"robust z-score, replicate 3":-0.651,"Outcome":"inactive"}
{"Target gene":"DNTTIP2","robust z-score, replicate 1":0.971,"robust z-score, replicate 2":1.53,"robust z-score, replicate 3":-0.842,"Outcome":"inactive"}
{"Target gene":"CIPC","robust z-score, replicate 1":-0.401,"robust z-score, replicate 2":-0.655,"robust z-score, replicate 3":-0.848,"Outcome":"inactive"}

Part of the list above, limited to “robust z-score, replicate 1”:
ISG20 = -0.723
DNAAF1 = 2.15

More results follow.
{"Target gene":"JMY","robust z-score, replicate 1":-0.0509,"robust z-score, replicate 2":-0.903,"robust z-score, replicate 3":-0.0104,"Outcome":"inactive"}
{"Target gene":"ZNF706","robust z-score, replicate 1":0.288,"robust z-score, replicate 2":-0.784,"robust z-score, replicate 3":-1.59,"Outcome":"inactive"}
{"Target gene":"TMPRSS6","robust z-score, replicate 1":-0.622,"robust z-score, replicate 2":0.235,"robust z-score, replicate 3":-1,"Outcome":"inactive"}
{"Target gene":"RFPL3","robust z-score, replicate 1":0.28,"robust z-score, replicate 2":-0.176,"robust z-score, replicate 3":0.694,"Outcome":"inactive"}
{"Target gene":"ATR","robust z-score, replicate 1":0.986,"robust z-score, replicate 2":0.804,"robust z-score, replicate 3":0.895,"Outcome":"inactive"}
{"Target gene":"VIP","robust z-score, replicate 1":0.0338,"robust z-score, replicate 2":-0.255,"robust z-score, replicate 3":0.334,"Outcome":"inactive"}
